Measured values as given in publication PMC4100928, “Evolutionary Divergence in the Catalytic Activity of the CAM-1, ROR1 and ROR2 Kinase Domains” (PLoS ONE, 2014).
Results are given in words; binding and its absence hold for the method and conditions named. Blank lines part the entries; values can stand above or below the molecule they belong to.

By UniProt entry, the sequences of proteins in these tests, tags left out. Residues count along the entry.
UniProt Q01973, residues 428-937: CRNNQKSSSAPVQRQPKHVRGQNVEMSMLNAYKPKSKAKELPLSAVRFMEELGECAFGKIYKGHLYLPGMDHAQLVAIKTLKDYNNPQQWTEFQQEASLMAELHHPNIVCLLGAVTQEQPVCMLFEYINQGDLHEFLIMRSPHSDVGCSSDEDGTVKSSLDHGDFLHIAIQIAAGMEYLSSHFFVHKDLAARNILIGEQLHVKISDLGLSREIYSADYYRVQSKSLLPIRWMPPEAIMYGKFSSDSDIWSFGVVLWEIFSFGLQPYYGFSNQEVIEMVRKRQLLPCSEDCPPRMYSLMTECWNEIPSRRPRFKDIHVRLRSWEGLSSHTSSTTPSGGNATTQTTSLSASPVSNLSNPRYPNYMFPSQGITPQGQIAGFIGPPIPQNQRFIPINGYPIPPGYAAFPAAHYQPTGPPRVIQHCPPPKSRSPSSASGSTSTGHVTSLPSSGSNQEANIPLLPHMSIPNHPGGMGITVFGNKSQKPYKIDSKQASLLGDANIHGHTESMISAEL

Tests used:
[1] = molecular target: ROR1 intracellular domain (ICD), wild type (human) (UniProt Q01973); test: SEC-MALS; printed as MALLS; theoretical against experimental molecular weight of the wild type ICDs; conditions not given; both purified
[2] = molecular target: ROR2 intracellular domain (ICD), wild type (human) (UniProt Q01974); test: as above

binding [1]: no binding
Molecule: ROR1 intracellular domain (ICD), wild type (from UniProt Q01973 428-937) (domain or fragment)

binding [2]: no binding
B1: ROR2 intracellular domain (ICD), wild type (domain or fragment, UniProt Q01974 428-943)
chain: CRNKQKASASTPQRRQLMASPSQDMEMPLINQHKQAKLKEISLSAVRFMEELGEDRFGKVYKGHLFGPAPGEQTQAVAIKTLKDKAEGPLREEFRHEAMLRARLQHPNVVCLLGVVTKDQPLSMIFSYCSHGDLHEFLVMRSPHSDVGSTDDDRTVKSALEPPDFVHLVAQIAAGMEYLSSHHVVHKDLATRNVLVYDKLNVKISDLGLFREVYAADYYKLLGNSLLPIRWMAPEAIMYGKFSIDSDIWSYGVVLWEVFSYGLQPYCGYSNQDVVEMIRNRQVLPCPDDCPAWVYALMIECWNEFPSRRPRFKDIHSRLRAWGNLSNYNSSAQTSGASNTTQTSSLSTSPVSNVSNARYVGPKQKAPPFPQPQFIPMKGQIRPMVPPPQLYVPVNGYQPVPAYGAYLPNFYPVQIPMQMAPQQVPPQMVPKPSSHHSGSGSTSTGYVTTAPSNTSMADRAALLSEGADDTQNAPEDGAQSTVQEAEEEEEGSVPETELLGDCDTLQVDEAQVQLEA
